According to US20190153409A1, “COMPOSITIONS COMPRISING PARTICLES AND METHODS FOR TREATING CANCER” (priority 2017, published 2019):
For at least one compound, name, drawing or mass did not settle the structure.

What was measured:
HCT116 cells = experiment: MTT cell-viability assay, HCT116 cells; type: cell-based, human; settings: HCT116 infected with Ad-Py4-TA, 1 μg/ml tetracycline, 72 hours
HT29 cells = experiment: Fluorescence microscopy of infected HT29 cells with or without tetracycline; type: cell-based, human; settings: HT29 naive cells infected with PY4-TA 10 MOI, 1 μg/ml tetracycline, 72 hours

Structure (SMILES): CN(C)[C@@H]1C(O)=C(C(N)=O)C(=O)[C@@]2(O)C(O)=C3C(=O)c4c(O)cccc4[C@@](C)(O)[C@H]3C[C@@H]12 [tetracycline]
- effect on the toxicity of MazF, MTT viability (HCT116 cells): did not compromise the toxicity of MazF
- expression of the antitoxin MazE (green fluorescence) (HT29 cells): increased
